Experimental findings from paper PMC11579034 are described below.

The chains behind the UniProt entries cited, without tags or fusion partners.
UniProt P10275: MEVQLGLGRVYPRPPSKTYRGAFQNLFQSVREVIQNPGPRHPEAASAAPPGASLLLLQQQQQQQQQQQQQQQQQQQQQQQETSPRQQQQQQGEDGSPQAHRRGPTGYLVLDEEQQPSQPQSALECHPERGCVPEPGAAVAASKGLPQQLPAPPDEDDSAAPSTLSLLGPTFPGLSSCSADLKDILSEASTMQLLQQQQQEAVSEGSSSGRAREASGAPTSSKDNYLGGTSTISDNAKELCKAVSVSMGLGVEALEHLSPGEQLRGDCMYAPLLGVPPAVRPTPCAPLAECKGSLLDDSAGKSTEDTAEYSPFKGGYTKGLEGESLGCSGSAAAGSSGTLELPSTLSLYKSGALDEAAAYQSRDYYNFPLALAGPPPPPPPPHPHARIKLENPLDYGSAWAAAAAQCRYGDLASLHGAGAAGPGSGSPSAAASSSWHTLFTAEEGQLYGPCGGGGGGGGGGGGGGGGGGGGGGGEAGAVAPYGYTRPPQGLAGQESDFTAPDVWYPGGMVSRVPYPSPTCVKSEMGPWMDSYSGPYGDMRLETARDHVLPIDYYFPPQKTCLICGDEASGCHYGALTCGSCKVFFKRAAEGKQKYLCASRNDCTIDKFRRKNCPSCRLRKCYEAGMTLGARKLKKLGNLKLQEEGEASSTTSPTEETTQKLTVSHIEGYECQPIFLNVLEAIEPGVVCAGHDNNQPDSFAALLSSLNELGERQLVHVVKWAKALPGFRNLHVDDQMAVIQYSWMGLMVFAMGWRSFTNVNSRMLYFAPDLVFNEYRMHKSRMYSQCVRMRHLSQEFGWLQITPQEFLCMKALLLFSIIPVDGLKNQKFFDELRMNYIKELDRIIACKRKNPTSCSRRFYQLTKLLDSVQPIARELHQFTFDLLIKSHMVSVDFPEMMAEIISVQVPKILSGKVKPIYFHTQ

The experiment has as its target heat shock protein 90 alpha family class A member 1 (HSP90AA1), endogenous in 22Rv1 and LNCaP cells (human (endogenous in 22Rv1 and LNCaP)) (UniProt P07900). Put plainly: co-IP; lysates of control or circRNF19A-490aa-overexpressing 22Rv1 and LNCaP cells immunoprecipitated with control IgG or AR or HSP90AA1 antibodies.

Results are given in words; binding and its absence hold for the method and conditions named. Binding seen in cells or lysates may run through a third protein. Some entries that bind do so weakly or less than the wild type.

In the case of “androgen receptor (AR), endogenous in 22Rv1 and LNCaP cells (from UniProt P10275 1-920)”, the binding entry was “binds”.
